# The other results are listed elsewhere or left out. Hit calls seldom repeat between salt and free forms of one compound.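 Kinases, fused to nanoluciferase, were expressed in K562 cells; luminescence was measured every 4 h from 2 to 18 h as percent of control (DMSO = 100%, positive control = 0%). A time point is decreased if signal falls significantly (2 sigma). Hits were called by the authors by a rule that is not shown; the count of time points alone does not decide it.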
# Protein sequences, listed by entry. Tags and fused reporters are not part of them. Lines headed by an entry give the natural chain unless they say otherwise; changes in a name come on top.
# UniProt P07949, whole entry, looked up: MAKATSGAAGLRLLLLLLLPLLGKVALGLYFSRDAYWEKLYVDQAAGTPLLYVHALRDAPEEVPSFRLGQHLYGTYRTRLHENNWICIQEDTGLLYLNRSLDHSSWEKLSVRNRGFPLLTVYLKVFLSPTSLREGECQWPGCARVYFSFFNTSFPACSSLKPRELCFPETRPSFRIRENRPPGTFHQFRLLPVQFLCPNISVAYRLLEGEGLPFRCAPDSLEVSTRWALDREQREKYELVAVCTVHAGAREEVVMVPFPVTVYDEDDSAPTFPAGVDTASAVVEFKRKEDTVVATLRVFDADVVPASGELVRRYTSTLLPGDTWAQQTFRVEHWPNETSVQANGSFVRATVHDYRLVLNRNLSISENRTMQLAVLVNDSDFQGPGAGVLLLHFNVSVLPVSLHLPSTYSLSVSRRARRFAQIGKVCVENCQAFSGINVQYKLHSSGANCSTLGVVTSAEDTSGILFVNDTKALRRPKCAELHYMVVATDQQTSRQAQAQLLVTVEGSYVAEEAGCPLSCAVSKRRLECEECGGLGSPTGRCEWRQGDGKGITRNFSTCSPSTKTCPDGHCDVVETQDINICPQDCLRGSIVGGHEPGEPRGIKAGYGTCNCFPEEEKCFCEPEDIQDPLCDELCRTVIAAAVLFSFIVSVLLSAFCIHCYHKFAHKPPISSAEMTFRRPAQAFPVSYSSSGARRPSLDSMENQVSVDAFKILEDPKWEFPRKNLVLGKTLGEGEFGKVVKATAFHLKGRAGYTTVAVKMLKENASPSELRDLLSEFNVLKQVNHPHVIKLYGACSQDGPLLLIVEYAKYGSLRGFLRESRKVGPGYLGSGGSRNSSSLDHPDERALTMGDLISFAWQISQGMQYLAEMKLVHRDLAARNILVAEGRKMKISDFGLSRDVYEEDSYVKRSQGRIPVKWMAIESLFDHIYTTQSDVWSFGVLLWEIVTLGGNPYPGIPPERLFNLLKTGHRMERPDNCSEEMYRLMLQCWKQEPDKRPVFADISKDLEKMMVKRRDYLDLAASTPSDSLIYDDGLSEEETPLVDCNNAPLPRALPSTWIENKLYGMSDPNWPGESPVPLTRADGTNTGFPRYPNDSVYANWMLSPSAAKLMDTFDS
# UniProt P07949, whole entry M918T, looked up: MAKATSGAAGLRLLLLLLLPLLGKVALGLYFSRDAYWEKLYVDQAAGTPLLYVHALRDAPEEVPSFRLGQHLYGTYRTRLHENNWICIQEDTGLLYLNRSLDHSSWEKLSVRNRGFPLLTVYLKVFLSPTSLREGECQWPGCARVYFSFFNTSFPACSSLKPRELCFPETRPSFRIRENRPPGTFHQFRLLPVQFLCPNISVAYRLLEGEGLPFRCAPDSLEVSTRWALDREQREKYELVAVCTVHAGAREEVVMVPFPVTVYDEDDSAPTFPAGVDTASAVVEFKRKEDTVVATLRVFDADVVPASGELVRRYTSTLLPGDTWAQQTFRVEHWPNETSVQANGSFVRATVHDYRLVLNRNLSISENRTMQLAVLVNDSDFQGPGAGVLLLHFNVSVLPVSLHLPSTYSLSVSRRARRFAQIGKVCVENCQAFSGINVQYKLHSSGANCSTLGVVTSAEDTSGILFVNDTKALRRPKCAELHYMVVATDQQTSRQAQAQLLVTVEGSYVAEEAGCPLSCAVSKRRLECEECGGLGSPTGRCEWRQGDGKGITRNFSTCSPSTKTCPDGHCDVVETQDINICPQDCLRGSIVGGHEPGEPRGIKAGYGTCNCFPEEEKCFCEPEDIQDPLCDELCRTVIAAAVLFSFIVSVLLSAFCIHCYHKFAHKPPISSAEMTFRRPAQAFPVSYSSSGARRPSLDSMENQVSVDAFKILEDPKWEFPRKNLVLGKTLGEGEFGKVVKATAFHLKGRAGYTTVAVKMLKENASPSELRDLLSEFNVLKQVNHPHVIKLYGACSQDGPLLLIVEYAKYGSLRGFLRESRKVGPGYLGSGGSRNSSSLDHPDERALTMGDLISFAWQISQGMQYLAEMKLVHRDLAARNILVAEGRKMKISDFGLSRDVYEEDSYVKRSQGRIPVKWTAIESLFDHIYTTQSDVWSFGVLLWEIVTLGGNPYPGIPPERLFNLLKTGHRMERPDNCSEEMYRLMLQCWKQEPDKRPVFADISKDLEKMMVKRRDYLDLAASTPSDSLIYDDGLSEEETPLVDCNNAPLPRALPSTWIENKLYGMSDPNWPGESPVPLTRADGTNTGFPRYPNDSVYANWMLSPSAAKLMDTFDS
# UniProt Q9BRS2: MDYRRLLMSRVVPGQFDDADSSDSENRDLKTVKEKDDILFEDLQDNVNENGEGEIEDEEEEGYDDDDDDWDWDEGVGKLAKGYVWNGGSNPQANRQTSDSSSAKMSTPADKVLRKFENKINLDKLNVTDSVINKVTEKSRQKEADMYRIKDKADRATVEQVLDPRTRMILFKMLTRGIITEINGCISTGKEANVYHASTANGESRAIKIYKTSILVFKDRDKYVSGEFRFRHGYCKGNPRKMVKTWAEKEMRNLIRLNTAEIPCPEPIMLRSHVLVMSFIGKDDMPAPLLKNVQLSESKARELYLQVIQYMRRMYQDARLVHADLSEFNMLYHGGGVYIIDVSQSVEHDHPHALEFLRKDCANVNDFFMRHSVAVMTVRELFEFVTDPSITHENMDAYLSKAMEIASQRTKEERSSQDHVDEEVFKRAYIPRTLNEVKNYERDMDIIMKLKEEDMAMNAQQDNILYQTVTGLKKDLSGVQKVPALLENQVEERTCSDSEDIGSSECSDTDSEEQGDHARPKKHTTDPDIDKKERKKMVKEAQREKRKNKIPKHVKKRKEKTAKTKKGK
# UniProt Q13546: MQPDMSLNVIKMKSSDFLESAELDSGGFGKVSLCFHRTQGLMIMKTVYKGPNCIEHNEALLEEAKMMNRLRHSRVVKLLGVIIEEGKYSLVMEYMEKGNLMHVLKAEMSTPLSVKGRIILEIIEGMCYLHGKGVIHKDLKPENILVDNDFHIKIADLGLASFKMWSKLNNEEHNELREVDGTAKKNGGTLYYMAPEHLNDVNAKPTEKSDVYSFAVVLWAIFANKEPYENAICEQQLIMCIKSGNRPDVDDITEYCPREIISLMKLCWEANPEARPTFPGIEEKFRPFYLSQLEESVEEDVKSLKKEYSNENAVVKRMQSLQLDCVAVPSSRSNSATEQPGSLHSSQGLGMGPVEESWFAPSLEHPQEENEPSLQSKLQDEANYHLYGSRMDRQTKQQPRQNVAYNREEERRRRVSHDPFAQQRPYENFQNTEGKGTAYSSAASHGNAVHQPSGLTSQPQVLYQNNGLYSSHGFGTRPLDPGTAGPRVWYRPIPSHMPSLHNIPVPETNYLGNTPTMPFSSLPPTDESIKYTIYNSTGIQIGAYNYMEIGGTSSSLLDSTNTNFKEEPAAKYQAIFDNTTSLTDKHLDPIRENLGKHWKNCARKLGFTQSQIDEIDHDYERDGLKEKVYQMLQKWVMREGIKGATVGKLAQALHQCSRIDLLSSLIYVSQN
# UniProt Q01974, whole entry: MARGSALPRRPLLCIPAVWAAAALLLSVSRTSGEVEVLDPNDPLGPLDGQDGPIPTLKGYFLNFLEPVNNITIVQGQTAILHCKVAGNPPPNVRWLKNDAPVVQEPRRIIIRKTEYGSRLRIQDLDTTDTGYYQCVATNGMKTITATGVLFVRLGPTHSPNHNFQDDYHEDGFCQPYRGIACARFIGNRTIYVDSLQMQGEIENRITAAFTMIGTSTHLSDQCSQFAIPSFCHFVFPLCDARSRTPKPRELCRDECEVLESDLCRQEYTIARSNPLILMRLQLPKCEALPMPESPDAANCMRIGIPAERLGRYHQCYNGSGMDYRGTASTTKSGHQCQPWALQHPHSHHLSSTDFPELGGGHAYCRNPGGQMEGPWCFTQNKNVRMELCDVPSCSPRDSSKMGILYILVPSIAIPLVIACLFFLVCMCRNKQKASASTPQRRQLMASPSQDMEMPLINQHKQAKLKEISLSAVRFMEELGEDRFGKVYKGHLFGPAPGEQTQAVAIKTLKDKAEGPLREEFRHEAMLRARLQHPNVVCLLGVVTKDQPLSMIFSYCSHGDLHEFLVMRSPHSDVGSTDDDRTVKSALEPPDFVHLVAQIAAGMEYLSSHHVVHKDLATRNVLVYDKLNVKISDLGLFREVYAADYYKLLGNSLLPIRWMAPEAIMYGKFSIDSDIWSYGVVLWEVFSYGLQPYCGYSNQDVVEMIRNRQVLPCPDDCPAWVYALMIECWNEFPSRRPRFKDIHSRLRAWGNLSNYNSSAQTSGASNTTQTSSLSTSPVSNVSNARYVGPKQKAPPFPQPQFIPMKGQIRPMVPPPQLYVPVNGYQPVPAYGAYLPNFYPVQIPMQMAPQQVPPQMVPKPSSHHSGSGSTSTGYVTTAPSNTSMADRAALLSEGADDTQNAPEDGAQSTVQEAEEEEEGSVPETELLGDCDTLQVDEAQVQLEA
# UniProt Q15418, whole entry: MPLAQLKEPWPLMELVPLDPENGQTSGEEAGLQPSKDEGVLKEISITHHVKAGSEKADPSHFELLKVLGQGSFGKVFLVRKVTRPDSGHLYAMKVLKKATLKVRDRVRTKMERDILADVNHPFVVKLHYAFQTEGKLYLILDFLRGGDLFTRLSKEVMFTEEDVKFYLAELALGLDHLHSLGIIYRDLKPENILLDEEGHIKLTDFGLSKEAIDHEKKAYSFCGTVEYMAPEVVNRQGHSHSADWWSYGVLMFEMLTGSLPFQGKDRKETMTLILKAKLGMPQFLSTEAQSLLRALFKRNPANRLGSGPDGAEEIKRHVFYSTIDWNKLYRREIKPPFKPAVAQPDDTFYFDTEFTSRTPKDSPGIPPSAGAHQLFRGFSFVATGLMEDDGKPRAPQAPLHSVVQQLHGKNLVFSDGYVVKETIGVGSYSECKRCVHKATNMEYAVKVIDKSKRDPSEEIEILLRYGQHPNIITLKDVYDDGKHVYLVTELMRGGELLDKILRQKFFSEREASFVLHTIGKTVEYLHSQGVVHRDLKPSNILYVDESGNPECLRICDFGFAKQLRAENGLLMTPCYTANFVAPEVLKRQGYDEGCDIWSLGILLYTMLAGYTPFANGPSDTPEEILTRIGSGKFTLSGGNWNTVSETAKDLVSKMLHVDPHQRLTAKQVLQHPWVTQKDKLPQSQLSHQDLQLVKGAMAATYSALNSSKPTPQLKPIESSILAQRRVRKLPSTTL
# UniProt Q9NYA1, whole entry: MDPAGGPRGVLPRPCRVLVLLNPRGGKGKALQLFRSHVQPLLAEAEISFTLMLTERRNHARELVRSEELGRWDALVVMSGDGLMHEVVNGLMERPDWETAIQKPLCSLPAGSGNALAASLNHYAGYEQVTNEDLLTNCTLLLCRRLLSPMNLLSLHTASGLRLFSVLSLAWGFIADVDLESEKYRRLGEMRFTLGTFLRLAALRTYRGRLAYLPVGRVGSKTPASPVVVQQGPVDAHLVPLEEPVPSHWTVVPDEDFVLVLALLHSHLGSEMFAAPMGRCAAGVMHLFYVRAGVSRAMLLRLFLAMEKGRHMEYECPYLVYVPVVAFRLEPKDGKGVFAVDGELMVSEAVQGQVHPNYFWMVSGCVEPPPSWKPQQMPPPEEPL
# UniProt Q15208: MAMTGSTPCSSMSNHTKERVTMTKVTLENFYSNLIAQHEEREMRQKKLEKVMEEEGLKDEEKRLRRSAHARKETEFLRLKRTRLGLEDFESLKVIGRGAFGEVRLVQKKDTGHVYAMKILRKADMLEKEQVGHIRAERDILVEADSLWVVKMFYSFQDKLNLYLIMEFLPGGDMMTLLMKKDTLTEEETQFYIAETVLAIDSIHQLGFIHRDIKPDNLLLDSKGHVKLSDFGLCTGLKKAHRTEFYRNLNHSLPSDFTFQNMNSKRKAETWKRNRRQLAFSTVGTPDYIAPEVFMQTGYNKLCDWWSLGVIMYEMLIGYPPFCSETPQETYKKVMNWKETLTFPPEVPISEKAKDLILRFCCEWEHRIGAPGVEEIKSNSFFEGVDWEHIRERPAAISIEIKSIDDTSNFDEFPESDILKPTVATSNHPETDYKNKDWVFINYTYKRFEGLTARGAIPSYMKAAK
# UniProt P07947, whole entry, looked up: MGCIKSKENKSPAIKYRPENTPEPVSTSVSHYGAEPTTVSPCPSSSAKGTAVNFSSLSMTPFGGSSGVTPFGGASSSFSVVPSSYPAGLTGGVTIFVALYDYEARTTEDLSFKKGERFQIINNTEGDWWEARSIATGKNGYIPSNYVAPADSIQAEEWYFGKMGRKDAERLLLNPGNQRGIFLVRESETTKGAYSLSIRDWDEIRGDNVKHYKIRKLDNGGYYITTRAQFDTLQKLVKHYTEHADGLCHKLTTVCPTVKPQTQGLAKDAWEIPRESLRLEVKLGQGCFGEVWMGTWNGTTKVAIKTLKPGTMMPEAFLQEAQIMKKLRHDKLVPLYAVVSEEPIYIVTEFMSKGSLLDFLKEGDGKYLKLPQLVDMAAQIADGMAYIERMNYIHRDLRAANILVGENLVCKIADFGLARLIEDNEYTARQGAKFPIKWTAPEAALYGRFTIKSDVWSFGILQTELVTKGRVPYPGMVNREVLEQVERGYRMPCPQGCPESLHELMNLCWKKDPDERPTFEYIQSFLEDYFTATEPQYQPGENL
# Experiments:
# Conditions in all cases: K562; 2-18 h
# RET = RET (UniProt P07949); test: kinase-Nluc reporter destabilization hit call (1 = scored as downregulated) (binary); higher = compound decreases kinase abundance
# [1] = molecular target: RET_M918T (clone: RET_mut) (UniProt P07949); test: as above
# RIOK1 = RIOK1 (UniProt Q9BRS2); test: as above
# RIPK1 = RIPK1 (UniProt Q13546); test: as above
# RIPK2 = RIPK2 (UniProt O43353); test: as above
# ROR2 = ROR2 (UniProt Q01974); test: as above
# RPS6KA1 = RPS6KA1 (UniProt Q15418); test: as above
# SPHK1 = SPHK1 (UniProt Q9NYA1); test: as above
# SRC = SRC (UniProt P12931); test: as above
# STK24 = STK24 (UniProt Q9Y6E0); test: as above
# STK38 = STK38 (UniProt Q15208); test: as above
# SYK = SYK (UniProt P43405); test: as above
# TEC = TEC (UniProt P42680); test: as above
# TYK2 = TYK2 (UniProt P29597); test: as above
# ULK3 = ULK3 (UniProt Q6PHR2); test: as above
# YES1 = YES1 (UniProt P07947); test: as above
# ZAK = ZAK (UniProt Q9NYL2); test: as above
# ZAP70 = ZAP70 (UniProt P43403); test: as above
# ABL1 = ABL1 (UniProt P00519); test: number of time points (of 5) at which kinase-Nluc abundance scored as decreased, DMSO-normalised (count); higher = more persistent destabilization
# AKT1 = AKT1 (UniProt P31749); test: as above
SMILES,kinase-Nluc reporter destabilization hit call (RET),kinase-Nluc reporter destabilization hit call [1],kinase-Nluc reporter destabilization hit call (RIOK1),kinase-Nluc reporter destabilization hit call (RIPK1),kinase-Nluc reporter destabilization hit call (RIPK2),kinase-Nluc reporter destabilization hit call (ROR2),kinase-Nluc reporter destabilization hit call (RPS6KA1),kinase-Nluc reporter destabilization hit call (SPHK1),kinase-Nluc reporter destabilization hit call (SRC),kinase-Nluc reporter destabilization hit call (STK24),kinase-Nluc reporter destabilization hit call (STK38),kinase-Nluc reporter destabilization hit call (SYK),kinase-Nluc reporter destabilization hit call (TEC),kinase-Nluc reporter destabilization hit call (TYK2),kinase-Nluc reporter destabilization hit call (ULK3),kinase-Nluc reporter destabilization hit call (YES1),kinase-Nluc reporter destabilization hit call (ZAK),kinase-Nluc reporter destabilization hit call (ZAP70),number of time points (ABL1),number of time points (AKT1)
COc1ccc(COc2cc3oc(=O)c4cc(C(C)O)ccc4c3cc2OC)cc1 (stereo not given) [Palomid 529] (2.5 µM),inactive: 0,inactive: 0,inactive: 0,inactive: 0,inactive: 0,inactive: 0,inactive: 0,inactive: 0,inactive: 0,inactive: 0,inactive: 0,inactive: 0,inactive: 0,inactive: 0,inactive: 0,inactive: 0,inactive: 0,inactive: 0,0,0
CN(C/C=C/C(=O)Nc1ccc(C(=O)Nc2cccc(Nc3ncc(Cl)c(-c4c[nH]c5ccccc45)n3)c2)cc1)CCCNC(=O)NCCOCCOCCOCCNC(=O)CCCC[C@@H]1SC[C@@H]2NC(=O)N[C@@H]21 (2.5 µM),inactive: 0,inactive: 0,inactive: 0,inactive: 0,inactive: 0,inactive: 0,inactive: 0,inactive: 0,inactive: 0,inactive: 0,inactive: 0,inactive: 0,inactive: 0,inactive: 0,inactive: 0,inactive: 0,inactive: 0,inactive: 0,0,1
COc1ccc(C2CC(c3ccc(Cl)cc3)=NN2c2nc(-c3ccncc3)cs2)cc1 (stereo not given) [mTOR inhibitor-8] (10 µM),inactive: 0,inactive: 0,inactive: 0,inactive: 0,inactive: 0,inactive: 0,inactive: 0,inactive: 0,inactive: 0,inactive: 0,inactive: 0,inactive: 0,inactive: 0,inactive: 0,inactive: 0,inactive: 0,inactive: 0,inactive: 0,0,0
COC(=O)/C=C/c1ccc(O)c(OC)c1 [Ferulic acid methyl ester] (10 µM),inactive: 0,inactive: 0,inactive: 0,inactive: 0,inactive: 0,inactive: 0,inactive: 0,inactive: 0,inactive: 0,inactive: 0,inactive: 0,inactive: 0,inactive: 0,inactive: 0,inactive: 0,inactive: 0,inactive: 0,inactive: 0,0,0
Cn1cc(-c2ccc3ncc(Cc4ccc5ncccc5c4)n3n2)cn1 (10 µM),inactive: 0,inactive: 0,inactive: 0,inactive: 0,inactive: 0,inactive: 0,inactive: 0,inactive: 0,inactive: 0,inactive: 0,inactive: 0,inactive: 0,inactive: 0,inactive: 0,inactive: 0,inactive: 0,inactive: 0,inactive: 0,0,0
C[C@@H]1O[C@@H](O[C@H]2[C@H](OC(=O)[C@]34CCC(C)(C)C[C@H]3C3=CC[C@@H]5[C@@]6(C)C[C@H](O)[C@H](O[C@@H]7O[C@H](CO)[C@@H](O)[C@H](O)[C@H]7O)C(CO)(CO)[C@@H]6CC[C@@]5(C)[C@]3(C)C[C@H]4O)OC[C@H](O)[C@@H]2O)[C@H](O)[C@H](O)[C@H]1O[C@@H]1OC[C@@H](O)[C@H](O[C@@H]2OC[C@](O)(CO)[C@H]2O)[C@H]1O [Platycodin D] (10 µM),inactive: 0,inactive: 0,inactive: 0,inactive: 0,inactive: 0,inactive: 0,inactive: 0,inactive: 0,inactive: 0,inactive: 0,inactive: 0,inactive: 0,inactive: 0,inactive: 0,inactive: 0,inactive: 0,inactive: 0,inactive: 0,0,0
O=C(Nc1nc2cccc(-c3ccc(CN4CCS(=O)(=O)CC4)cc3)n2n1)C1CC1 [Filgotinib] (2.5 µM),inactive: 0,inactive: 0,inactive: 0,inactive: 0,inactive: 0,inactive: 0,inactive: 0,inactive: 0,inactive: 0,inactive: 0,inactive: 0,inactive: 0,inactive: 0,inactive: 0,inactive: 0,inactive: 0,inactive: 0,inactive: 0,0,0
CC(C)(C)S(=O)(=O)c1ccc2nccc(Nc3n[nH]c4ccc(F)cc34)c2c1 (10 µM),inactive: 0,inactive: 0,inactive: 0,inactive: 0,inactive: 0,inactive: 0,inactive: 0,inactive: 0,inactive: 0,inactive: 0,inactive: 0,inactive: 0,inactive: 0,inactive: 0,inactive: 0,inactive: 0,inactive: 0,inactive: 0,0,0
COc1cc(/C=C/c2ccc(NC(=O)/C=C/c3cc(OC)c(OC)c(OC)c3)cc2)cc(OC)c1 (2.5 µM),inactive: 0,inactive: 0,inactive: 0,inactive: 0,inactive: 0,inactive: 0,inactive: 0,inactive: 0,inactive: 0,inactive: 0,inactive: 0,inactive: 0,inactive: 0,inactive: 0,inactive: 0,inactive: 0,inactive: 0,inactive: 0,0,0
CC(C)n1nc(C#Cc2ccccc2)c2c(N)ncnc21 (10 µM),inactive: 0,inactive: 0,inactive: 0,inactive: 0,inactive: 0,inactive: 0,inactive: 0,inactive: 0,inactive: 0,inactive: 0,inactive: 0,inactive: 0,inactive: 0,inactive: 0,inactive: 0,inactive: 0,inactive: 0,inactive: 0,2,0
CC(C)=CCC/C(C)=C/CC/C(C)=C/CSc1ccccc1C(=O)O [Salirasib] (10 µM),inactive: 0,inactive: 0,inactive: 0,inactive: 0,inactive: 0,inactive: 0,inactive: 0,inactive: 0,inactive: 0,inactive: 0,inactive: 0,inactive: 0,inactive: 0,inactive: 0,inactive: 0,inactive: 0,inactive: 0,inactive: 0,0,0
COc1cc(-c2cnc(N)c(-c3ccc(NC(=O)c4cn(CC5CCOCC5)cc(-c5ccc(C)cn5)c4=O)cc3F)c2)ccc1OC[C@H]1COCCO1 [DS-1205b (free base)] (10 µM),inactive: 0,inactive: 0,inactive: 0,inactive: 0,inactive: 0,inactive: 0,inactive: 0,inactive: 0,inactive: 0,inactive: 0,inactive: 0,inactive: 0,inactive: 0,inactive: 0,inactive: 0,inactive: 0,inactive: 0,inactive: 0,0,0
NC(=O)c1nc(-c2c(F)cccc2Cl)oc1Nc1ccc(C(=O)N2CCOCC2)cc1 (10 µM),inactive: 0,inactive: 0,inactive: 0,inactive: 0,inactive: 0,inactive: 0,inactive: 0,inactive: 0,inactive: 0,inactive: 0,inactive: 0,inactive: 0,inactive: 0,inactive: 0,inactive: 0,inactive: 0,inactive: 0,inactive: 0,0,0
Cc1ncc(F)c(Nc2n[nH]c3c2CN(C(=O)N2C[C@@H](C)N(CC4CCOCC4)C[C@@H]2C)C3(C)C)n1 (10 µM),inactive: 0,inactive: 0,inactive: 0,inactive: 0,inactive: 0,inactive: 0,inactive: 0,inactive: 0,inactive: 0,inactive: 0,inactive: 0,inactive: 0,inactive: 0,inactive: 0,inactive: 0,inactive: 0,inactive: 0,inactive: 0,0,0
Cc1cccc(-c2[nH]c(C(C)(C)C)nc2-c2ccc3c(c2)OCO3)n1 (2.5 µM),inactive: 0,inactive: 0,inactive: 0,inactive: 0,inactive: 0,inactive: 0,inactive: 0,inactive: 0,inactive: 0,inactive: 0,inactive: 0,inactive: 0,inactive: 0,inactive: 0,inactive: 0,inactive: 0,inactive: 0,inactive: 0,0,0
Cn1cc(-c2ccc3nnc(Sc4ccc5nn(C)cc5c4)n3n2)cn1 [c-Met inhibitor 1] (10 µM),inactive: 0,inactive: 0,inactive: 0,inactive: 0,inactive: 0,inactive: 0,inactive: 0,inactive: 0,inactive: 0,inactive: 0,inactive: 0,inactive: 0,inactive: 0,inactive: 0,inactive: 0,inactive: 0,inactive: 0,inactive: 0,0,0
C=CC(=O)Nc1cccc(Oc2nc(Nc3ccc(N4CCN(C)CC4)cc3)nc3ccsc23)c1 [Olmutinib] (2.5 µM),inactive: 0,inactive: 0,inactive: 0,inactive: 0,inactive: 0,inactive: 0,inactive: 0,inactive: 0,inactive: 0,inactive: 0,inactive: 0,inactive: 0,inactive: 0,inactive: 0,inactive: 0,inactive: 0,inactive: 0,inactive: 0,0,0
COc1ccc(-c2cnc3c(-c4cccc5ncccc45)cnn3c2)cc1 (10 µM),inactive: 0,inactive: 0,inactive: 0,inactive: 0,inactive: 0,inactive: 0,inactive: 0,inactive: 0,inactive: 0,inactive: 0,inactive: 0,inactive: 0,inactive: 0,inactive: 0,inactive: 0,inactive: 0,inactive: 0,inactive: 0,0,0

# Rewritten bar-delimited: part of the list above
SMILES | kinase-Nluc reporter destabilization hit call (RET) | kinase-Nluc reporter destabilization hit call [1] | kinase-Nluc reporter destabilization hit call (RIOK1) | kinase-Nluc reporter destabilization hit call (RIPK1) | kinase-Nluc reporter destabilization hit call (RIPK2) | kinase-Nluc reporter destabilization hit call (ROR2) | kinase-Nluc reporter destabilization hit call (RPS6KA1) | kinase-Nluc reporter destabilization hit call (SPHK1) | kinase-Nluc reporter destabilization hit call (SRC) | kinase-Nluc reporter destabilization hit call (STK24) | kinase-Nluc reporter destabilization hit call (STK38) | kinase-Nluc reporter destabilization hit call (SYK) | kinase-Nluc reporter destabilization hit call (TEC) | kinase-Nluc reporter destabilization hit call (TYK2) | kinase-Nluc reporter destabilization hit call (ULK3) | kinase-Nluc reporter destabilization hit call (YES1) | kinase-Nluc reporter destabilization hit call (ZAK) | kinase-Nluc reporter destabilization hit call (ZAP70) | number of time points (ABL1) | number of time points (AKT1)
Cn1cc(-c2ccc3nnc(Sc4ccc5nn(C)cc5c4)n3n2)cn1 [c-Met inhibitor 1] (10 µM) | inactive: 0 | inactive: 0 | inactive: 0 | inactive: 0 | inactive: 0 | inactive: 0 | inactive: 0 | inactive: 0 | inactive: 0 | inactive: 0 | inactive: 0 | inactive: 0 | inactive: 0 | inactive: 0 | inactive: 0 | inactive: 0 | inactive: 0 | inactive: 0 | 0 | 0
C=CC(=O)Nc1cccc(Oc2nc(Nc3ccc(N4CCN(C)CC4)cc3)nc3ccsc23)c1 [Olmutinib] (2.5 µM) | inactive: 0 | inactive: 0 | inactive: 0 | inactive: 0 | inactive: 0 | inactive: 0 | inactive: 0 | inactive: 0 | inactive: 0 | inactive: 0 | inactive: 0 | inactive: 0 | inactive: 0 | inactive: 0 | inactive: 0 | inactive: 0 | inactive: 0 | inactive: 0 | 0 | 0

# — the supplement of paper PMC12823440, “Inhibitors supercharge kinase turnover through native proteolytic circuits” (Nature, 2025)
